Counter-ions that a name gives are not always drawn. This is one part of the list. Repeats are few or missing, and single values can be far off.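 Primary human fetal astrocytes engulfed labelled rat cortical synaptosomes, measured as a red/green ratio corrected for calcein live-cell signal and scaled to the plate median. Toxicity meant calcein falling over 30%; decreased phagocytosis meant below 70% of median above 5 µM.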
Columns and labels:
[1] = system: Human fetal astrocytes; assay: loss of total cells relative to no-compound high-control median (toxicity); higher = more toxic (fewer cells); settings: 24 h
[2] = system: Human fetal astrocytes; assay: synaptosome phagocytosis (pHrodo/calcein intensity ratio) relative to plate median of data wells; higher = more phagocytosis; settings: 24 h

Compound	loss of total cells ([1]; 1.39 µM) [%]	loss of total cells ([1]; 2.78 µM) [%]	loss of total cells ([1]; 5.56 µM) [%]	loss of total cells ([1]; 11.11 µM) [%]	loss of total cells ([1]; 22.22 µM) [%]	synaptosome phagocytosis ([2]; 1.39 µM) [%]	synaptosome phagocytosis ([2]; 2.78 µM) [%]	synaptosome phagocytosis ([2]; 5.56 µM) [%]	synaptosome phagocytosis ([2]; 11.11 µM) [%]	synaptosome phagocytosis ([2]; 22.22 µM) [%]
CC(=O)N[C@@H](Cc1ccccc1)C(=O)O	-3.3	-9.7	-2.2	-6.1	0.7	84.8	95.6	97.5	118	130
CC1CC(OC(=O)C(O)c2ccccc2)CC(C)(C)C1 (stereo not given)	19.9	15.5	26.1	19.7	14.4	133	97.3	76.6	132	111
O=C1OC(c2ccc(O)cc2)(c2ccc(O)cc2)c2ccccc21	6.2	-15.9	-22.3	1.4	-2.7	86.2	99.7	153	93.3	98.1
CC(C)(N=NC(C)(C)C(=N)N)C(=N)N [2,2'-azobis[2-amidinopropane]dihydrochloride]	-9	5.4	-5.1	3.4	28.1	115	91.6	103	82.8	123
CCN(CCO)CCCC(C)Nc1ccnc2cc(Cl)ccc12 (stereo not given)	-10.8	-20.4	0.9	-7	22.1	105	80.2	106	107	103
C#C[C@]1(O)CC[C@H]2[C@@H]3CCC4=C(CCC(=O)C4)[C@H]3CC[C@@]21C	-4.1	-22.9	0.9	1.6	15.3	94.7	91.4	110	123	101
CN1CCCN=C1/C=C/c1cccs1	1.5	-7.1	-9.1	1.4	19.8	96.4	102	118	105	103
CC(=O)O[C@]1(C(C)=O)CC[C@H]2[C@@H]3C=C(Cl)C4=CC(=O)[C@@H]5C[C@@H]5[C@]4(C)[C@H]3CC[C@@]21C	-22.3	-19.3	-17.4	-11.2	28.3	100	105	140	91.3	104
C=C[C@@]1(C)CC(=O)[C@]2(O)[C@@]3(C)[C@@H](O)CCC(C)(C)[C@@H]3[C@H](O)[C@H](OC(C)=O)[C@@]2(C)O1	-28.2	-8.7	6.2	21.3	10.3	64.3	70.4	83	70.2	117
CC[C@H]1OC(=O)[C@H](C)[C@@H](O[C@H]2C[C@@](C)(OC)[C@@H](O)[C@H](C)O2)[C@H](C)[C@@H](O[C@@H]2O[C@H](C)C[C@H](N(C)C)[C@H]2O)[C@](C)(O)C[C@@H](C)/C(=N\OCOCCOC)[C@H](C)[C@@H](O)[C@]1(C)O	5.6	-27	5	18	0.9	143	119	108	143	114
CC(=O)Oc1ccc(O)cc1	-7.6	-4.7	6.5	-7.1	20.5	83.5	97.6	123	82.9	84
COC1=CC(=O)C(C(=O)c2ccccc2)=CC1=O	4.7	-3.3	43.5	1.9	41.9	131	73	148	96.7	108
CCn1cc(C(=O)O)c(=O)c2cnc(N3CCCC3)nc21	14.1	-1.8	-53.6	-102	24.2	118	98.6	3.4	7.4	123
COC(=O)[C@@H]1OC(=O)C2OC23[C@@]1(C)CCC1[C@]2(C)C(C[C@H](O)[C@]13C)C(C)(C)[C@H](OC(C)=O)C[C@@H]2OC(C)=O (stereo partly drawn) [7beta-HYDROXY-7-DESACETOXYKHIVORINIC ACID, METHYL ESTER]	17	-0.7	43.5	0	9.3	118	83.4	123	97.5	123
CCN(CCCc1ccccc1)CCCc1ccccc1	-0.8	-16.8	5.7	-2.3	21.5	72.6	75	70.8	103	80.3
C[C@]12C=CC(=O)C=C1CC[C@@H]1[C@@H]2[C@@H](O)C[C@@]2(C)[C@H]1CC[C@]2(O)C(=O)CO	-1.5	-11.9	-18.8	1.4	23.4	121	98.8	88.2	128	112
COc1ccc2cc1Oc1ccc(cc1)C[C@H]1c3c(cc4c(c3Oc3cc5c(cc3OC)CCN(C)[C@@H]5C2)OCO4)CCN1C	14.1	13.4	16.7	2.9	19.7	67.9	89.4	110	123	119
CCC(C)n1ncn(-c2ccc(N3CCN(c4ccc(OCC5COC(Cn6cncn6)(c6ccc(Cl)cc6Cl)O5)cc4)CC3)cc2)c1=O (stereo not given)	-7.6	7.3	36.6	-0.6	9.3	101	93.1	158	106	93.5
CC(=O)NC1C(O)CC(O)(C(=O)O)OC1C(O)C(O)CO (stereo not given)	-21.4	-2.7	29.8	46.5	-9.3	88	103	114	162	101
O=C1NS(=O)(=O)c2ccccc21	-16.6	-5.2	12.9	3.1	-12.5	74.4	82.5	108	95.1	120

Single records, from the list above. Order of values: loss of total cells ([1]; 1.39 µM) [%]	loss of total cells ([1]; 2.78 µM) [%]	loss of total cells ([1]; 5.56 µM) [%]	loss of total cells ([1]; 11.11 µM) [%]	loss of total cells ([1]; 22.22 µM) [%]	synaptosome phagocytosis ([2]; 1.39 µM) [%]	synaptosome phagocytosis ([2]; 2.78 µM) [%]	synaptosome phagocytosis ([2]; 5.56 µM) [%]	synaptosome phagocytosis ([2]; 11.11 µM) [%]	synaptosome phagocytosis ([2]; 22.22 µM) [%]
COC1=CC(=O)C(C(=O)c2ccccc2)=CC1=O reads 4.7	-3.3	43.5	1.9	41.9	131	73	148	96.7	108
CCC(C)n1ncn(-c2ccc(N3CCN(c4ccc(OCC5COC(Cn6cncn6)(c6ccc(Cl)cc6Cl)O5)cc4)CC3)cc2)c1=O (stereo not given) reads -7.6	7.3	36.6	-0.6	9.3	101	93.1	158	106	93.5
